Data as given in PubChem BioAssay AID1053208 (Peter MacCallum Cancer Centre, 2014)
Shown is a random part of about 17,000 deposited reagents. 788 of all reagents (4.7%) were called active. 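Calls rest on z-score classes alone; an extra cut-off of viability at most 70% of control was not applied to them.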 The numbers tell different reagents against one gene apart. Not all columns of the deposit are shown.

- Assay: 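Find knock-downs that sensitise mouse osteosarcoma cells to doxorubicin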 (primary screen)
- System: mouse osteosarcoma cells, early-passage culture from an engineered mouse model of fibroblastic bone tumour
- Reagents: siRNA pool against mouse genes, 40 nM
- Timing: about 120 h (48 h before drug, then 72 h with drug)
- Conditions: doxorubicin 100 nM for 72 h, roughly 30-40% inhibitory dose
- Detection: 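Viability read as ATP luminescence after 72 h of 100 nM doxorubicin or none, duplicate wells averaged, scaled to non-targeting siRNA, then expressed as robust z-scores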
- Scale: viability z-score with doxorubicin: higher = more viable cells under doxorubicin; viability z-score without drug: higher = more viable cells with knock-down alone
- Hit rule: 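a pool counts as active when its viability z-score with doxorubicin is -2 or below and its z-score without drug lies between -2 and 2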

Mmachc (GeneID 67096) | combined z-score class: no change with or without drug; viability z-score with doxorubicin: -1.57; viability z-score without drug: 1.01; Outcome: inactive
Gnat2 (GeneID 14686) | combined z-score class: no change with or without drug; viability z-score with doxorubicin: 1.8; viability z-score without drug: 0.84; Outcome: inactive
2010204K13Rik (GeneID 68355) | combined z-score class: no change with or without drug; viability z-score with doxorubicin: -1.01; viability z-score without drug: 0.34; Outcome: inactive
Or4c126 (GeneID 258466) | combined z-score class: no change with or without drug; viability z-score with doxorubicin: -0.34; viability z-score without drug: -0.34; Outcome: inactive
Ola1 (GeneID 67059) | combined z-score class: no change with or without drug; viability z-score with doxorubicin: 1.57; viability z-score without drug: 0.84; Outcome: inactive
Ap5s1 (GeneID 69596) | combined z-score class: no change with or without drug; viability z-score with doxorubicin: 0.67; viability z-score without drug: 0.51; Outcome: inactive
Pnliprp2 (GeneID 18947) | combined z-score class: no change with or without drug; viability z-score with doxorubicin: 1.57; viability z-score without drug: 1.85; Outcome: inactive
Cacng4 (GeneID 54377) | combined z-score class: no change with or without drug; viability z-score with doxorubicin: 0; viability z-score without drug: 1.18; Outcome: inactive
Lamb2 (GeneID 16779) | combined z-score class: no change with or without drug; viability z-score with doxorubicin: -0.22; viability z-score without drug: 1.52; Outcome: inactive
Acer1 (GeneID 171168) | combined z-score class: no change with or without drug; viability z-score with doxorubicin: 1.57; viability z-score without drug: 1.52; Outcome: inactive

Reprinted from above (5 entries):
2010204K13Rik (GeneID 68355) | combined z-score class: no change with or without drug; viability z-score with doxorubicin: -1.01; viability z-score without drug: 0.34; Outcome: inactive
Or4c126 (GeneID 258466) | combined z-score class: no change with or without drug; viability z-score with doxorubicin: -0.34; viability z-score without drug: -0.34; Outcome: inactive
Ola1 (GeneID 67059) | combined z-score class: no change with or without drug; viability z-score with doxorubicin: 1.57; viability z-score without drug: 0.84; Outcome: inactive
Ap5s1 (GeneID 69596) | combined z-score class: no change with or without drug; viability z-score with doxorubicin: 0.67; viability z-score without drug: 0.51; Outcome: inactive
Pnliprp2 (GeneID 18947) | combined z-score class: no change with or without drug; viability z-score with doxorubicin: 1.57; viability z-score without drug: 1.85; Outcome: inactive

More reagents follow.
Vmn1r239-ps (GeneID 100504631) | combined z-score class: no change with or without drug; viability z-score with doxorubicin: -0.11; viability z-score without drug: -0.67; Outcome: inactive
Or7g21 (GeneID 258557) | combined z-score class: no change with or without drug; viability z-score with doxorubicin: -0.9; viability z-score without drug: 0.51; Outcome: inactive
Rps15 (GeneID 20054) | combined z-score class: low cell count with and without drug; viability z-score with doxorubicin: -6.41; viability z-score without drug: -4.89; Outcome: inactive
Rad9b (GeneID 231724) #1 | combined z-score class: no change with or without drug; viability z-score with doxorubicin: 1.57; viability z-score without drug: 1.35; Outcome: inactive
Rad9b (GeneID 231724) #2 | combined z-score class: no change with or without drug; viability z-score with doxorubicin: 0.11; viability z-score without drug: 0.51; Outcome: inactive
2900092C05Rik (GeneID 73090) | combined z-score class: low cell count with and without drug; viability z-score with doxorubicin: -2.25; viability z-score without drug: -2.19; Outcome: inactive
Pspc1 (GeneID 66645) | combined z-score class: high cell count with and without drug; viability z-score with doxorubicin: 3.71; viability z-score without drug: 3.37; Outcome: inactive
Gjb5 (GeneID 14622) | combined z-score class: no change with or without drug; viability z-score with doxorubicin: 1.12; viability z-score without drug: -1.18; Outcome: inactive
Sall2 (GeneID 50524) | combined z-score class: no change with or without drug; viability z-score with doxorubicin: 0.67; viability z-score without drug: 1.18; Outcome: inactive
Golgb1 (GeneID 224139) | combined z-score class: no change with or without drug; viability z-score with doxorubicin: 0; viability z-score without drug: 1.01; Outcome: inactive
Gdap1 (GeneID 14545) | combined z-score class: no change with or without drug; viability z-score with doxorubicin: 0.9; viability z-score without drug: -0.67; Outcome: inactive
Wfdc1 (GeneID 67866) | combined z-score class: no change with or without drug; viability z-score with doxorubicin: -0.45; viability z-score without drug: 0.17; Outcome: inactive
Myo19 (GeneID 66196) | combined z-score class: no change with or without drug; viability z-score with doxorubicin: 1.35; viability z-score without drug: -0.67; Outcome: inactive
Cd164 (GeneID 53599) | combined z-score class: no change with or without drug; viability z-score with doxorubicin: -1.12; viability z-score without drug: -0.17; Outcome: inactive
Trip13 (GeneID 69716) | combined z-score class: no change with or without drug; viability z-score with doxorubicin: -0.45; viability z-score without drug: -0.51; Outcome: inactive
Cfap126 (GeneID 75472) | combined z-score class: low cell count with doxorubicin only; viability z-score with doxorubicin: -2.02; viability z-score without drug: -1.18; Outcome: active
Tbxas1 (GeneID 21391) | combined z-score class: no change with or without drug; viability z-score with doxorubicin: 0.45; viability z-score without drug: 1.35; Outcome: inactive
Gnaq (GeneID 14682) | combined z-score class: no change with or without drug; viability z-score with doxorubicin: -0.79; viability z-score without drug: 0.34; Outcome: inactive
